Laboratory results published in PubChem BioAssay AID651640 (Broad Institute, 2012).
The campaign covered roughly 350,000 compounds. About 6,000 (1.7%) were called active. This list was built around the results that the source calls inconclusive (neither active nor inactive); the mix of calls is not that of the screen. Cut-off read from the data, not from the text of the source: active = CPE inhibition above about 20% (passing the limit was not always enough); inconclusive = no clear call, values can overlap the other calls; tested in BHK-21 cells. The source holds several records for some structures; these can differ, active in one and inactive in another.

test: protection of cells from dengue 2 killing – plate reader, single concentration, primary screen (AID 651640); conditions: DENV2-infected cells, cytopathic effect rescue, at 9.99 µM, hits give high values;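 note: 0% = median of neutral control wells and 100% = median of positive control wells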

Row | SMILES | CPE inhibition
1 | CCOc1ccc(N=Nc2c(C)[nH]n(-c3ccccc3)c2=O)cc1 | inconclusive: 22.7%
2 | COc1ccccc1C(NC(=O)C1CCCCC1)c1c(O)ccc2ccccc12 (configuration not stated) | inactive: -5.65%
3 | COc1ccccc1CNS(=O)(=O)c1cc2c3c(c1)CCC(=O)N3CCC2 | inconclusive: 44.4%
4 | Cc1noc(C)c1NC(=O)Nc1ccc2c(c1)C(=O)N([C@H](C)CO)C[C@H](C)[C@@H](CN(C)S(=O)(=O)c1cn(C)cn1)O2 | active: 22.2%
5 | C[C@@H]1CN([C@@H](C)CO)S(=O)(=O)c2ccc(C#Cc3ccncc3)cc2O[C@@H]1CN(C)C(=O)C1CC1 | inconclusive: 20.5%
6 | COc1ccc2c3c(n(C)c2c1)[C@H](CO)N(CC1CC1)CC31CN(C(=O)NC2CCCC2)C1 | inconclusive: 24.2%
7 | O=C(NCCN1CCOCC1)C(=O)NCC1OCCN1S(=O)(=O)c1ccc(Cl)cc1 (configuration not stated) | active: 79.2%
8 | Cc1cc(C)c(S(=O)(=O)N2CCCC(C(=O)NCc3ccccn3)C2)c(C)c1 (configuration not stated) | inconclusive: 37.7%
9 | CCC(=O)Nc1ccc2c(c1)OC[C@@H](C)N(C(=O)c1ccccc1F)C[C@H](C)[C@@H](OC)CN(C)C2=O | inactive: 10.1%
10 | COc1ccccc1-c1ccc2c(c1)C(C)(Cc1ccc(Cl)cc1)C(=O)N2 (configuration not stated) | inconclusive: 44.1%
11 | COCC(=O)N1CCCCN2[C@H](CO)[C@@H](c3ccc(C#Cc4ccccc4)cc3)[C@@H]2C1 | inactive: 13.8%
12 | CCOC(=O)C1(C)CCN1C(=O)c1cccc(OC)c1 (configuration not stated) | active: 42.3%
13 | C[C@H]1CN([C@@H](C)CO)C(=O)c2cc(C#Cc3ccccn3)cnc2O[C@@H]1CN(C)Cc1cncnc1 | inconclusive: 61.1%
14 | COc1ccc2c3c([nH]c2c1)[C@@H](CO)N(Cc1ccc2c(c1)OCO2)CC31CN(C(=O)Nc2c(C)noc2C)C1 | inconclusive: 26.8%
15 | C[C@@H](C(=O)CC(=O)OC(C)(C)C)[C@@H](O)c1c(F)cccc1Cl | inconclusive: 26.2%
16 | CO[C@@H]1CN(C)C(=O)c2cc(NC(=O)Nc3c(C)noc3C)ccc2OC[C@H](C)NC[C@@H]1C | inconclusive: 22.1%
17 | COc1ccc(N2CCN(S(=O)(=O)CCNC(=O)c3cc(=O)c4ccccc4o3)CC2)cc1 | inconclusive: 26%
18 | CC(C)C#Cc1cnc2c(c1)C(=O)N([C@H](C)CO)C[C@H](C)[C@H](CN(C)C(=O)Nc1ccccc1F)O2 | inconclusive: 31.3%
19 | Cc1cc(C(=O)N/N=C/c2cc(Br)c(Br)o2)n[nH]1 | inactive: 1.95%
20 | C[C@H](CO)N1C[C@H](C)[C@H](CN(C)Cc2ccc(C(F)(F)F)cc2)Oc2ccc(NC(=O)CCC(F)(F)F)cc2CC1=O | inactive: 1.42%
21 | C[C@@H]1CN([C@H](C)CO)C(=O)c2cccc(NC(=O)c3cnccn3)c2O[C@@H]1CN(C)Cc1ccc(-c2ccccc2)cc1 | inconclusive: 29.1%
22 | Cc1c(Cl)c(C(=O)N2CCCC2)nn1C | active: 121%
23 | Clc1ccc(N2CCN(c3ccnc(Cl)n3)CC2)cc1 | inconclusive: 20.9%
24 | COc1ccccc1-c1cc(NC(C)=O)c2ncc(-c3cccc(C(C)=O)c3)n2c1 | inconclusive: 48.3%

Row | SMILES | CPE inhibition
25 | CC1=CC(=O)Nc2ncccc2O1 | inconclusive: 49.5%
26 | C[C@@H]1CN([C@H](C)CO)S(=O)(=O)c2ccc(C#CC3(O)CCCC3)cc2O[C@H]1CN(C)C(=O)Cc1cccnc1 | inactive: -5.49%
27 | CC(C)(C)c1ccc(Cc2n[nH]c(=S)[nH]c2=O)cc1 | inconclusive: 25%
28 | Cc1ccc(CNC(=O)C2CCC(=O)N2Cc2ccc(F)cc2)cc1 (configuration not stated) | inactive: -0.619%
29 | CC(C)NC(=O)Nc1ccc2c(c1)C(=O)N([C@H](C)CO)C[C@@H](C)[C@@H](CN(C)C(=O)Nc1ccc3c(c1)OCO3)O2 | active: 24.9%
30 | Cc1ccc(SCC(=O)OCC(=O)NCCc2ccccc2)cc1C | inconclusive: 24.7%
31 | CC(C)c1ccccc1OCCCCCN1CCOCC1 | inconclusive: 33.3%
32 | O=C(N[C@@H]1CC[C@@H](CCNS(=O)(=O)c2ccccc2)O[C@H]1CO)c1cccnc1 | active: 32.1%
33 | CCOC(=O)C1CCCN(S(=O)(=O)c2ccc3c(c2)N(C)C(=O)CC(=O)N3C)C1 (configuration not stated) | inconclusive: 44%
34 | C/C(=N\NC(=O)CNC(=O)c1ccc(Br)cc1)c1ccco1 | inconclusive: 20.4%
35 | COc1ccccc1NC(=O)C(=O)NCC(c1ccco1)N1CCc2ccccc2C1 (configuration not stated) | inconclusive: 25.7%
36 | COc1cc(C=C2C(=O)OC(C)(C)OC2=O)cc(Cl)c1OCC(=O)Nc1ccccc1 | inconclusive: 50.7%
37 | COCc1c(C(=O)N/N=C\c2cccnc2)nnn1-c1nonc1N | inconclusive: 27.4%
38 | C[C@@H]1CCCCO[C@@H](CN(C)Cc2ccc3c(c2)OCO3)[C@H](C)CN([C@H](C)CO)C(=O)c2cc(NS(=O)(=O)c3ccc(Cl)cc3)ccc2O1 | inactive: -1.12%
39 | S=c1[nH]nc(CN2CCCCC2)n1Cc1ccccc1 | inactive: -2.92%
40 | CCNC(=O)Oc1ccc[nH]c1=O | inconclusive: 48.4%
41 | O=C1CCCC[C@@H](CO)[C@H](O)C[C@H](c2ccccc2)O1 | inconclusive: 54.1%
42 | Cc1noc(C)c1NC(=O)Nc1ccc2c(c1)CC(=O)N([C@@H](C)CO)C[C@H](C)[C@@H](CN(C)C(=O)Nc1ccccc1)O2 | active: 83%
43 | CO[C@H]1CN(C)C(=O)c2cc(NC(=O)CC(F)(F)F)ccc2OC[C@H](C)N(C(=O)C2CCCCC2)C[C@H]1C | active: 50.1%
44 | C[C@H](CO)N1C[C@H](C)[C@H](CN(C)C(=O)C2CCCCC2)OCCCC[C@H](C)Oc2ccc(NC(=O)C3CCCCC3)cc2C1=O | inactive: 19.5%
45 | CCNC(=O)C[C@H]1CC[C@@H]2[C@@H](COc3ccc(NC(=O)c4ccc(F)cc4)cc3C(=O)N2C)O1 | inconclusive: 30.1%
46 | C/C=C/c1ccc([C@@H]2[C@@H](CO)N(C(C)=O)C23CN(C(=O)c2ccncc2)C3)cc1 | active: 24.9%
47 | CCN(C[C@@H]1[C@@H](c2ccccc2)[C@H](CO)N1S(C)(=O)=O)C(=O)C1CC1 | inactive: 10.4%

Random excerpt: 3 entries already listed, in no set order.
Row | SMILES | CPE inhibition
44 | C[C@H](CO)N1C[C@H](C)[C@H](CN(C)C(=O)C2CCCCC2)OCCCC[C@H](C)Oc2ccc(NC(=O)C3CCCCC3)cc2C1=O | inactive: 19.5%
35 | COc1ccccc1NC(=O)C(=O)NCC(c1ccco1)N1CCc2ccccc2C1 (configuration not stated) | inconclusive: 25.7%
18 | CC(C)C#Cc1cnc2c(c1)C(=O)N([C@H](C)CO)C[C@H](C)[C@H](CN(C)C(=O)Nc1ccccc1F)O2 | inconclusive: 31.3%
